Results reported in patent US20030166623A1.
These are yes or no findings as the source states them, for the method shown. For some assays here: In cells and extracts the contact can be indirect. Some results given as binding are weak or reduced against the parent protein; the word gives no strength. Blank lines part the entries; values can stand above or below the substance they belong to.

Chains of the proteins cited; added tags and fusions are not shown. Lines headed by an entry give the natural chain unless they say otherwise; changes in a name come on top. Residues count along the entry.
UniProt P10275: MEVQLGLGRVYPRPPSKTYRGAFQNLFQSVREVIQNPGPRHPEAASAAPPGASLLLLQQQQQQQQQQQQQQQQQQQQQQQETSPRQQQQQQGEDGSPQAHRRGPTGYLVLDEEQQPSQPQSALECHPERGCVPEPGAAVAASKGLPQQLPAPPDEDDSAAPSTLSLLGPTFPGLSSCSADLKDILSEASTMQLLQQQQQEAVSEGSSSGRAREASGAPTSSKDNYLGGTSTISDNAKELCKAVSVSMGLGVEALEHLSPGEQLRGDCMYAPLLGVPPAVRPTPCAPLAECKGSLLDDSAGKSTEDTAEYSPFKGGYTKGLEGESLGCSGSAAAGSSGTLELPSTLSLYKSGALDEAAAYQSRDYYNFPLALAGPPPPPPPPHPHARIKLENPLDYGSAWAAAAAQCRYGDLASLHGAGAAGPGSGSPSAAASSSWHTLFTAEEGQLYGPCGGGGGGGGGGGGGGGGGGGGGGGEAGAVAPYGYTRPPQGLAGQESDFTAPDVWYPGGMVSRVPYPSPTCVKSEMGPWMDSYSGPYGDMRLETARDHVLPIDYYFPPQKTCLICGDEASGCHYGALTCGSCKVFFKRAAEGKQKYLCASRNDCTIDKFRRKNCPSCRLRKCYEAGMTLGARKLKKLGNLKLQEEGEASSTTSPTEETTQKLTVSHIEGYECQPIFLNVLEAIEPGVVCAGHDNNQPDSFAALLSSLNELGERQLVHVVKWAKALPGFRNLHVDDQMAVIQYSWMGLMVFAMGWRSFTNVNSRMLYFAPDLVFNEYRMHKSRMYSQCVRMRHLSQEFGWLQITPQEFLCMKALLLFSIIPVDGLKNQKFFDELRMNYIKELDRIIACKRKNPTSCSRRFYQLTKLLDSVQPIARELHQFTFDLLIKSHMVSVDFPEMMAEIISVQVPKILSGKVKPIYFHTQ
AR-DBD + LBD (yeast 2-hybrid bait): residues 506-920 of P10275
UniProt P03372: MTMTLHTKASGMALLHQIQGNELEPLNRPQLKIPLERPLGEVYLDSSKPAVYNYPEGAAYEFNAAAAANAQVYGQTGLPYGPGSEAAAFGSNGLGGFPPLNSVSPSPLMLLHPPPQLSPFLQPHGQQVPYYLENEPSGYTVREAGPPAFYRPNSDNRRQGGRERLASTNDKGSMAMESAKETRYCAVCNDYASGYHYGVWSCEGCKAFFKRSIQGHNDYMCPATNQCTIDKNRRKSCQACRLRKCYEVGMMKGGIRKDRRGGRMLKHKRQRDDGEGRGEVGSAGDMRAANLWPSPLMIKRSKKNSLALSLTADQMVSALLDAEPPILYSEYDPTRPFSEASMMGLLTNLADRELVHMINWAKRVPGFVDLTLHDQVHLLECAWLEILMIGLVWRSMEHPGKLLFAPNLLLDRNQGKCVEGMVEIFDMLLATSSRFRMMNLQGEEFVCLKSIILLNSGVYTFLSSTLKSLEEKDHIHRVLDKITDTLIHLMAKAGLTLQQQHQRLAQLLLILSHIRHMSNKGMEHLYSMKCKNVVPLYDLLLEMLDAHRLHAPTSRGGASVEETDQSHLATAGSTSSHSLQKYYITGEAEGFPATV
UniProt Q61026, residues 730-1121: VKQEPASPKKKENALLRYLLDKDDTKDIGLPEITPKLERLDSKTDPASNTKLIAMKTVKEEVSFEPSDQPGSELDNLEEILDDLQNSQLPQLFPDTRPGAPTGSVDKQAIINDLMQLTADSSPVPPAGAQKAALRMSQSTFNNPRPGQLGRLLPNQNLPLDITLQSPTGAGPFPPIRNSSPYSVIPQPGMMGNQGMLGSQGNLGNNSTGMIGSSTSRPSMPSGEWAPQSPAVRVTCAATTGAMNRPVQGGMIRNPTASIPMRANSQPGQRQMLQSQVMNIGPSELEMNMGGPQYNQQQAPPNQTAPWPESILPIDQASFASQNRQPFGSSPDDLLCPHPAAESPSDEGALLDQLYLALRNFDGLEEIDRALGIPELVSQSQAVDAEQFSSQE
UniProt Q5R8Z4: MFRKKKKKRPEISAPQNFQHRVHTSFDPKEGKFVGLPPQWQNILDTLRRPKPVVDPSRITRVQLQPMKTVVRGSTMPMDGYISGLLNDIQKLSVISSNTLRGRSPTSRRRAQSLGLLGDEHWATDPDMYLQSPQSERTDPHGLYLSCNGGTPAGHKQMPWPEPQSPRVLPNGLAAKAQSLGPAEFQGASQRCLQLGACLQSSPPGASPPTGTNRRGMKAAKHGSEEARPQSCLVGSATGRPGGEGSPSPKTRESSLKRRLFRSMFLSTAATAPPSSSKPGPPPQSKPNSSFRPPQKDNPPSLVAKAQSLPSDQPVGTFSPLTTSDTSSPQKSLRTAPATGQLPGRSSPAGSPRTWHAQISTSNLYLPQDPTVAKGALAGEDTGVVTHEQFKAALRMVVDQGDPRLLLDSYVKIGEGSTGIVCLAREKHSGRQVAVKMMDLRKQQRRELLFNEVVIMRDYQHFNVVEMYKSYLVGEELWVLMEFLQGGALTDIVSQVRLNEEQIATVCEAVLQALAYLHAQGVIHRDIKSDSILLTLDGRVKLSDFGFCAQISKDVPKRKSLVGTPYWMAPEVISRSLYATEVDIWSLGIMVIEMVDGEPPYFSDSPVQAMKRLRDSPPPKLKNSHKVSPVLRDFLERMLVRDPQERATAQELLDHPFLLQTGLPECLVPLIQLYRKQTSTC

What was measured:
[1] = target: full length androgen receptor (UniProt P10275); test: GST pulldown of full length 35S-labeled androgen receptor, with or without DHT or bicalutamide
[2] = target: androgen receptor from LNCaP cells (UniProt P10275); test: GST pulldown from LNCaP cells, anti-androgen receptor immunoblotting
[3] = target: full length androgen receptor (UniProt P10275); test: GST pulldown of 35S-labeled in vitro transcribed/translated androgen receptor
[4] = target: full length androgen receptor (UniProt P10275); test: GST pulldown, autoradiogram
estrogen receptor a (ER) [5] = target: estrogen receptor a (ER) (UniProt P03372); test: GST pulldown of 35S-labeled ER, autoradiogram
[6] = target: androgen receptor from LNCaP cells (UniProt P10275); test: GST pulldown, anti-androgen receptor Western blot
estrogen receptor a (ER) [7] = target: estrogen receptor a (ER) (UniProt P03372); test: GST pulldown of 35S-labeled ER, with or without estradiol or tamoxifen
[8] = target: full length androgen receptor (UniProt P10275); test: GST pulldown of full length 35S-labeled androgen receptor, autoradiogram
[9] = target: AR-DBD + LBD (yeast 2-hybrid bait) (UniProt P10275); test: yeast 2-hybrid, β-galactosidase

- binding [1]: binds
Substance: GST-GRIP1(730-1121) (from UniProt Q61026 730-1121)

- binding [2]: binds
- binding [1]: binds
- binding [3]: binds
- binding [4]: binds
- binding (estrogen receptor a (ER) [5]): binds
- binding [6]: binds
- binding (estrogen receptor a (ER) [7]): binds
- binding [8]: binds
Substance: GST-PAKSI(256-682) (from UniProt Q5R8Z4 256-681)

- binding [9]: binds
Substance: pACT2-PAK (yeast 2-hybrid prey) (from UniProt Q5R8Z4 256-681)

- binding [9]: binds
Substance: pGAD424-GRIP1 (yeast 2-hybrid prey, GRIP1 amino acids 730-1121) (from UniProt Q61026 730-1121)
